These are yes or no findings as the source states them, for the method shown. A result given as binding can be weak or reduced; the word gives no strength. Sequences can lack the tags named with a protein.
Experiments:
hemoglobin (Sigma) = assay: SPR, legend of FIG. 4
myoglobin (Sigma) [1] = assay: SPR, legend of FIG. 4
myoglobin (Sigma) [2] = assay: SPR (BIAcore X), myoglobin immobilized on CM5 chip

Measured: binding

B1: anticalin HbgA (mutein of human apolipoprotein D), purified, with C-terminal Strep-Tag II (designed binder, not shown: small tags and cut ends)
chain: QAFHLGKCPNPPVQENFDVNKYPGRWYEIEKIPQFVWMGRCIQANYSLMENGKIKVLNQFLRITLDVWQIEGEATPVNLTEPAKLEVKEGLGDPSAPYWILATDYENYALVYSCESFLWLFHWDFAWILARNVALPPETVDSLKNILTSNNIDVKKMTVTDQVNCPKLS
binds: all assays above
